{"source": "patent US10648979B2", "about": "“Molecular probes for detecting gram-negative bacteria in vitro and in vivo” (priority 2014, dated 2020)", "key": {"[1]": {"system": "panel of bacteria (P. aeruginosa, A. baumannii, S. maltophilia, K. pneumoniae, E. coli, H. influenzae, MRSA, MSSA, S. pneumoniae)", "assay": "In vitro labelling of bacteria by laser scanning confocal microscopy", "type": "cell-based", "procedure": "In vitro labelling was assessed on benchtop confocal in the presence of compound with bacteria and labelling was compared to NBD-UBINle which served as a reference control for bacterial labelling. […] For the ex vivo and in vivo ovine lung experiments each compound was assessed in a control lung segment (instilled with 2 ml PBS) or a bacterial segment (instilled with 2 ml of 2 optical density of bacteria). Following bacterial instillation, the compound was administered to the segment of interest and this was imaged by probe based confocal laser endomicroscopy (FCFM)."}, "[2]": {"system": "panel of bacteria (Gram-negative and Gram-positive)", "assay": "Flow cytometry of bacterial labelling", "type": "cell-based", "conditions": "NBD-UBIdend 5 μM, NBD-UBINle 15 μM", "procedure": "FIG. 7: NBD-UBIdend labels bacteria selectively over mammalian cells in vitro: A) Example images of a clinically relevant bacterial panel with NBD-UBIdend (5 μM; green) counterstained with the fluorescent generic cellular DNA dye Syto-82 (red) imaged by laser scanning confocal microscopy. B) Quantification of bacterial panel labelling NBD-UBIdend 5 μM (optimal concentration) where every bacteria in the panel is brighter when compared with MSSA and NBD-UBINle 10 μM (optimal concentration) C) Flow cytometry data with unstained bacteria (red), NBD-UBINle 15 μM (blue) and NBD-UBIdend 5 μM labelled bacteria (orange). […] Representative images shown, n≥3 for all experiments.\nFIG. 8: NBD-PMX selectively labels Gram-negative bacteria in vitro. Example images of the bacterial panel with NBD-PMX imaged by laser scanning confocal microscopy. A) Bacterial panel with NBD-PMX 1 μM (green) and counterstain with syto-82 (red). […] C) Flow cytometric evaluation of bacterial labelling with NBD-PMX showing unstained bacteria (red) and NBD-PMX (blue) labelled bacteria. […] Representative images shown, n≥3 for all experiments.\nBacteria were prepared and counterstained with Syto 82 nucleic acid stain (Invitrogen, Calif., USA) in a shaking heat block at 37° C. and 350 rpm for 20 minutes. […] This was diluted to 500 uL and analysed using BD FACS Calibur using FL-1 and FL-2 channels, with 10,000 events. […]"}, "[3]": {"system": "pre-labelled bacteria in ovine lung", "assay": "Pre-labelled bacteria instilled into the ovine lung and imaged by FCFM", "from_the_text": "FIG. 14: NBD-UBIdend and NBD-PMX are resistant to ‘wash off’ allowing detection of bacteria in the ovine lung. […] However, when bacteria pre-labelled with linear NBD-UBINle are instilled, no punctate signal is seen. Labelling was confirmed by imaging bacterial suspensions (left hand panels) before instillation into the lung and imaging by FCFM (right hand panels). Note the lower SNR for NBD-UBINle labelled bacteria in suspension. Representative images shown, n=3 for each experiment.\n(§1) In the distal lung, there is likely to be significant and rapid dissipation of the probes immediately after delivery. Therefore, it is imperative that probe-bacterial labelling remains persistent under these conditions. […] As such, this resistance to ‘wash-off’ represents a surrogate indicator of probe-bacterial affinity which appears to be an absolute requirement for distal lung in situ labelling.\nWe have obtained evidence that the wash-off properties of the probes, most likely related to affinity and/or the nature of subsequent insertion into the bacterial membrane, impact on whether or not they can be used to successfully image in the lung. The retention of labelling upon removal of probe solution was investigated in vitro by confocal. With all of the linear UBI variants labelling was lost completely upon wash-off. […]"}, "bacterial panel": {"system": "bacterial panel", "assay": "Retention of labelling upon wash-off (PBS wash) in vitro by confocal", "type": "cell-based", "from_the_text": "FIG. 15: NBD-UBIdend retains fluorescence when wash performed. A) The bacterial panel was imaged by laser scanning confocal microscopy in the continued presence of NBD-UBIdend (black) and following PBS wash (white).\nas §1\nWe have obtained evidence that the wash-off properties of the probes, most likely related to affinity and/or the nature of subsequent insertion into the bacterial membrane, impact on whether or not they can be used to successfully image in the lung. The retention of labelling upon removal of probe solution was investigated in vitro by confocal. With all of the linear UBI variants labelling was lost completely upon wash-off. […] Bacteria were pre-labelled with these linear NBD-UBINle compounds and successful labelling was confirmed by imaging the bacterial suspension pre-instillation."}, "[4]": {"system": "bacteria over lung surfactant constituents", "assay": "Bacterial labelling in the presence of lung surfactant constituents (confocal)", "type": "cell-based"}, "bacteria in ovine lung": {"system": "bacteria in ovine lung", "assay": "Automated image processing of entire FCFM videos from ovine lung", "conditions": "80 spots per frame threshold", "from_the_text": "FIG. 19: Image Processing Algorithms delineate ‘positive’ and ‘negative’ frames from FCFM data A) raw data for a frame that is deemed positive or negative. B) Without pre-processing, spot-detection is ineffective. Following estimation of background noise C), high-pass filtering D) and appropriate thresholding E), the current algorithm detect minimal punctate signal in negative frames F).\nAnalysis of NBD-UBIdend videos with thresholding at 80 spots per frame and an arbitrary cut-off of 10% enables objective detection of bacteria using a combination of Laplacian of Gaussian (LoG) and Difference of Gaussians (DoG) positive frames. […]\nWe have begun to develop bespoke image analysis/processing strategies to perform rapid real-time objective analysis of the large datasets generated by the probe/FCFM platform. […] These signal and image processing algorithms will be rapidly iterated in readiness for clinical application, and we expect significant components of machine-learning to be incorporated into further optimisation of NBD-UBIdend and NBD-PMX datasets.\nSpots are enhanced in an image by convolving with a LoG or DoG filter. […] Finally, spots are detected with LoG or DoG. […]"}, "[5]": {"system": "bacteria on human lung tissue", "assay": "Detection of bacteria in the presence of human lung tissue autofluorescence (FCFM, confocal, FLIM)", "conditions": "S. aureus on human lung tissue", "from_the_text": "FIG. 21: Bacteria detected in the presence of human lung tissue autofluorescence. […] B) Live confocal microscopy images (merge) showing merge images of nucleic acid counterstain (red) with no NBD-PMX labelling. Bacteria in right panel can be clearly seen, labelled with NBD-PMX and above the background fluorescence.\nFIG. 24: Fluorescence Life Time Imaging easily distinguishes lung tissue from bacteria. […] Imaging performed using NBD-UBIdend and S. aureus on human lung tissue."}}, "note": "Not every detail of the peptide structures is certain; ends, links or a residue may be inferred. For at least one compound, name, drawing or mass did not settle the structure."}
{"smiles": "CCCC[C@H](NC(=O)[C@H](CCCNC(=N)N)NC(=O)[C@H](CCCNC(=N)N)NC(=O)[C@H](CCCCN)NC(=O)[C@H](C)NC(=O)[C@H](CCCNC(=N)N)NC(=O)CNC(=O)[C@@H](NC(=O)COCCOCCNc1ccc([N+](=O)[O-])c2nonc12)[C@@H](C)O)C(=O)N[C@@H](CCC(N)=O)C(=O)N[C@@H](Cc1ccc(O)cc1)C(=O)N[C@@H](CC(N)=O)C(=O)N[C@@H](CCCNC(=N)N)C(=O)N[C@@H](CCCNC(=N)N)C(=O)NCCOCCOCC(=O)NCCCOCC(COCCCNC(=O)COCCOCCNC(=O)[C@H](CCCNC(=N)N)NC(=O)[C@H](CCCNC(=N)N)NC(=O)[C@H](CC(N)=O)NC(=O)[C@H](Cc1ccc(O)cc1)NC(=O)[C@H](CCC(N)=O)NC(=O)[C@H](CCCC)NC(=O)[C@H](CCCNC(=N)N)NC(=O)[C@H](CCCNC(=N)N)NC(=O)[C@H](CCCCN)NC(=O)[C@H](C)NC(=O)[C@H](CCCNC(=N)N)NC(=O)CNC(=O)[C@@H](NC(=O)COCCOCCNc1ccc([N+](=O)[O-])c2nonc12)[C@@H](C)O)(COCCCNC(=O)COCCOCCNC(=O)[C@H](CCCNC(=N)N)NC(=O)[C@H](CCCNC(=N)N)NC(=O)[C@H](CC(N)=O)NC(=O)[C@H](Cc1ccc(O)cc1)NC(=O)[C@H](CCC(N)=O)NC(=O)[C@H](CCCC)NC(=O)[C@H](CCCNC(=N)N)NC(=O)[C@H](CCCNC(=N)N)NC(=O)[C@H](CCCCN)NC(=O)[C@H](C)NC(=O)[C@H](CCCNC(=N)N)NC(=O)CNC(=O)[C@@H](NC(=O)COCCOCCNc1ccc([N+](=O)[O-])c2nonc12)[C@@H](C)O)NC(N)=O", "note": "(stereo partly drawn) [NBD-UBIdend]", "values": [{"measurement": "labelling of bacterial panel", "setting": "[1]; 5 μM", "value": "Labelling was observed with variable intensity"}, {"measurement": "brightness of labelled bacteria compared with MSSA labelled with linear NBD-UBINle", "setting": "[1]; NBD-UBIdend 5 μM vs NBD-UBINle 10 μM", "value": "all bacteria were brighter than MSSA labelled with linear NBD-UBINle"}, {"measurement": "labelling by flow cytometry compared with linear NBD-UBINle", "setting": "[2]", "value": "increased labelling over linear NBD-UBINle"}, {"measurement": "detection of pre-labelled bacteria after instillation", "setting": "[3]", "value": "readily visualised"}, {"measurement": "retention of labelling upon wash-off", "setting": "bacterial panel", "value": "resistant to wash-off"}, {"measurement": "selectivity for bacterial labelling over lung surfactant constituents", "setting": "[4]", "value": "possess selectivity for bacterial labelling over lung surfactant constituents"}, {"measurement": "bacterial:surfactant fluorescence intensity compared with linear NBD-UBINle", "setting": "[4]; equimolar NBD concentrations", "value": "significantly improved bacterial selectivity over linear NBD-UBINle"}, {"measurement": "detection by automated image processing (percentage positive frames, YES/NO)", "setting": "bacteria in ovine lung", "value": "unequivocal detection of bacteria"}, {"measurement": "Fluorescence Life Time Imaging of lung tissue and bacteria", "setting": "[5]", "value": "clear differences in imaging of lung tissue (green) and bacteria (blue)"}]}
